Source: PubChem BioAssay AID504744 (Drosophila RNAi Screening Center, 2011)

Aim: 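Uncover factors, including feedback loops, that control dAkt activation in fly cells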 (primary screen)
Cell system: Drosophila Kc167 cells
Knock-down reagent: long dsRNA against Drosophila genes, 250 ng dsRNA per well of a 384-well plate
Timing: 3 days of knock-down, then overnight serum-free starvation before stimulation
Treatment: bovine insulin at 387 nM for 10 minutes after 12 h without serum
Measurement: 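In-cell antibody fluorescence for phospho-dAkt in each well over DNA-dye signal, with log2 residuals expressed as z-scores adjusted for cell count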
Hit rule: 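Under insulin, a gene counts as a hit if the average z-score of two replicates lies above 2.5 or below -2.5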
In all, the deposit lists about 23,000 reagents; this is an unselected part of those that have a named target and a result. Of all reagents, 98 (0.43%) are marked active. 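Only hit calls are given; the phospho-dAkt signals, z-scores and hit direction were not deposited.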 A plus sign joins genes that one reagent is predicted to hit.

CR42532 (pseudo) [DRSC06713] — Call = inactive
Mcr (Macroglobulin complement-related) [DRSC03366] — Call = inactive
Sdr (Secreted decoy of InR) [DRSC15517] — Call = inactive
Cyp6w1 (Cytochrome P450 6w1) [DRSC04909] — Call = inactive
Sos (Son of sevenless) [DRSC03439] — Call = inactive
CG17490 [DRSC03794] — Call = inactive
CG17490 [DRSC03797] — Call = inactive
eIF3e (eukaryotic translation initiation factor 3 subunit e) [DRSC11199] — Call = inactive
nvy (nervy) [DRSC04705] — Call = inactive
ProtA (Protamine A) [DRSC03372] — Call = inactive
CG18493 [DRSC15334] — Call = inactive
CG3306 [DRSC10357] — Call = inactive
CG31650 [DRSC03140] — Call = inactive
ras (raspberry) [DRSC18825] — Call = inactive
Acp32CD (Accessory gland protein 32CD) [DRSC01858] — Call = inactive
scpr-A + scpr-C [DRSC15737] — Call = inactive
mxt (mextli) [DRSC00551] — Call = inactive
robo3 (roundabout 3) [DRSC00374] — Call = inactive
robo3 (roundabout 3) [DRSC00375] — Call = inactive
robo3 (roundabout 3) [DRSC00684] — Call = inactive
Lpin (Lipin) [DRSC07241] — Call = inactive
Parg (Poly(ADP-ribose) glycohydrolase) [DRSC18696] — Call = inactive
CG4133 [DRSC00639] — Call = inactive
AnxB11 (Annexin B11) [DRSC19331] — Call = inactive
CG14562 [DRSC11723] — Call = inactive
LysB (Lysozyme B) [DRSC08673] — Call = inactive
CG11159 [DRSC06050] — Call = inactive
FipoQ (F-box involved in polyQ pathogenesis) [DRSC15413] — Call = inactive
Ank2 (Ankyrin 2) [DRSC08894] — Call = inactive
Ank2 (Ankyrin 2) [DRSC09666] — Call = inactive
Ank2 (Ankyrin 2) [DRSC10338] — Call = inactive
Ank2 (Ankyrin 2) [DRSC11278] — Call = inactive
Ank2 (Ankyrin 2) [DRSC22922] — Call = inactive
Wwox (WW domain containing oxidoreductase) [DRSC03030] — Call = inactive
Wwox (WW domain containing oxidoreductase) [DRSC22872] — Call = inactive
CG13836 (retired record) [DRSC14686] — Call = inactive
CG6931 [DRSC10750] — Call = inactive
CG1773 [DRSC06688] — Call = inactive
CG13157 [DRSC06282] — Call = inactive

Records listed so far whose gene name begins with R or r:
ras (raspberry) [DRSC18825] — Call = inactive
robo3 (roundabout 3) [DRSC00374] — Call = inactive
robo3 (roundabout 3) [DRSC00375] — Call = inactive
robo3 (roundabout 3) [DRSC00684] — Call = inactive
